Data published in PubChem BioAssay AID662 (National Center for Advancing Translational Sciences (NCATS), 2007).
Several values for one entry are separate records, joined by “and”; a condition that tells them apart may be missing. Identical values can stand only once. The list shows a part of the results. These are further read-outs of the screen, such as a control signal, another cell line or another target. No call is given for them. Most of these compounds were active or inconclusive in the main read-out, so they are no random draw. Potencies come from curve fits of mixed quality, noted in brackets.

assay: Cell signaling CRE-BLA (Fsk stim); settings: CHO CRE-bla reporter (cAMP response element driving beta-lactamase), forskolin EC10, beta-lactamase ratio; measured here: 460 nm blue channel
How it was run: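 Modulation of forskolin signalling: compounds in titration series added with EC10 NKH 477 to CHO cells carrying a CRE-driven beta-lactamase reporter, 3 h, 37C. CCF4 FRET ratio (460/530 nm, ex 405 nm) gives %activity and AC50.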

Compound | AC50
O=C1C(C=Nc2ccccc2O)=C(O)c2ccccc21 | 0.316 µM [falling, full curve]
Cc1sc2nc(CN(Cc3cccs3)C(=O)C3CC3)[nH]c(=O)c2c1C | 10 µM [rising, single point]
Cc1ccc(C(=O)N2CCN(C(=O)c3ccc(C)c(C)c3)C(C)C2)cc1C (configuration not stated) | 1.26 µM [falling, partial curve]
CCOC(=O)c1cc(NC(=O)NCc2ccco2)c(C)nc1C | 3.16 µM [falling, partial curve]
CCOC(=O)Cn1ncc2c(=O)oc3ccccc3c21 | 2.51 µM [falling, single point]
CN1C(=O)C2(NCCc3c2[nH]c2ccccc32)c2ccccc21 (configuration not stated) | 5.01 µM [falling, partial curve, poor fit]
COc1cc2[nH]c(=O)n3nc(-c4ccccc4)nc3c2cc1OC | 0.00316 µM [falling, full curve, poor fit]
Cn1c(=O)n(C)c2cc(S(=O)(=O)NCc3ccccc3)ccc21 | 0.00316 µM [falling, full curve, poor fit]
CC(C)c1ccc(Cn2ccc3c4c(N)nc(NC5CC5)nc4ccc32)cc1 | 12.6 µM [rising, partial curve]
Cc1ccc(Cn2ccc(NC(=O)c3cc(-c4ccc(Br)cc4)on3)n2)cc1 | 0.0158 µM [rising, full curve]
O=C(Nc1ccccc1N1CCCCC1)c1cccs1 | 10 µM [rising, single point]
O=c1c(-c2cccc(Cl)c2)nc2cncnc2n1Cc1ccc(F)cc1 | 12.6 µM [rising, partial curve]
CCOc1cc(C2C(C#N)=C(N)Oc3n[nH]c(-c4ccccc4)c32)ccc1O (configuration not stated) | 3.16 µM [rising, partial curve]
COCc1cc(C)nc(Nc2ccc(C)c(C)c2)c1C#N | 25.1 µM [rising, single point]
COc1ncc2nc(-c3ccccc3)c(=O)n(CCC#N)c2n1 | 10 µM [rising, partial curve]
C=CCn1c(=O)c2ccccc2n2c(SCC(=O)Nc3cc(C)on3)nnc12 | 12.6 µM [rising, single point]
Cc1cccc(C2c3c(n(C)c(=O)n(C)c3=O)N=C3c4ccccc4C(=O)C32)c1 (configuration not stated) | 5.01 µM [rising, partial curve]
Cc1noc(NS(=O)(=O)c2ccc(N3CC(O)=C(c4ccccc4)C3=N)cc2)c1C | 3.98 µM [falling, single point]
COc1ccc2c(c1)sc1nc(-c3ccccc3)cn12 | 5.01 µM [falling, single point]
CCCCNc1c(C(=O)OCC)c(C)nc2c1cnn2CC | 5.01 µM [rising, partial curve] and 2 µM [rising, full curve] and 7.94 µM [falling, partial curve, poor fit]
Cc1nc2ccccc2nc1CSc1nncs1 | 12.6 µM [rising, partial curve]
COc1ccc(Oc2ncc3nc(C)c(=O)n(C)c3n2)cc1 | 12.6 µM [rising, single point]
CC1CCC(n2c(=S)[nH]c3ccccc3c2=O)CC1 (configuration not stated) | 12.6 µM [rising, partial curve]

Compound | AC50
O=C(CCSc1nnc(-c2ccco2)o1)Nc1ccc(Cl)cc1 | 25.1 µM [falling, single point]
COc1ccc(CNc2ccnc(-c3ccoc3)n2)c(OC)c1 | 3.98 µM [rising, full curve, poor fit]
COc1ccc(N2CCN(S(=O)(=O)c3ccc(Br)s3)CC2)cc1 | 5.01 µM [falling, single point]
Cc1nc(SCC(=O)NCc2ccccc2)c2c(=O)n(C)c(=O)n(C)c2n1 | 10 µM [rising, partial curve]
CCOC(=O)c1ccccc1NC(=O)CN(c1cccc(OC)c1)S(C)(=O)=O | 1 µM [falling, single point]
CCOc1ccc(N2C(=O)c3ccc(C(=O)OCc4c(C)noc4C)cc3C2=O)cc1 | 0.01 µM [falling, full curve, poor fit]
COc1cccc(-c2ccc3ncnc(N4CCNCC4)c3c2)c1 | 3.16 µM [rising, partial curve]
CCCCP(=O)(CCCC)c1ccccc1C(=O)O | 0.501 µM [falling, full curve]
CCOC(=O)C1CCCN(C(=O)c2cc3c(=O)n(C)c4ccccc4c3n2C)C1 (configuration not stated) | 2 µM [rising, full curve, poor fit]
Cn1c(C(=O)N2CCCCCC2)cc2c(=O)n(C)c3ccccc3c21 | 3.16 µM [rising, full curve]
Cc1ccc(-c2csc(=S)n2CC(=O)OCC(=O)NCc2ccco2)cc1 | 3.16 µM [falling, partial curve]
CCOC(=O)CSC1=C(C#N)C(c2ccc(C)s2)CC(=O)N1 (configuration not stated) | 15.8 µM [rising, single point]
Cc1ccccc1Cn1c(CN2CCN(c3ccc(F)cc3)CC2)nc2c1c(=O)n(C)c(=O)n2C | 7.94 µM [rising, partial curve]
CCOC(=O)/C(C#N)=C1/C=Cc2ccccc2N1CC | 15.8 µM [rising, partial curve]
CC(C)(C)S(=O)(=O)c1ccccc1C(=O)O | 25.1 µM [falling, single point]
COc1ccc(NC(=O)c2ccc3c(c2)n(C)c(=O)n3C)cc1 | 12.6 µM [rising, single point]
O=C(CSc1nnc2ccccn12)Nc1ccccc1C(=O)NC1CC1 | 15.8 µM [falling, single point]
COc1cc2c(C(=O)NC3CCCCCC3)cn(C)c(=O)c2cc1OC | 2 µM [rising, full curve]
Cc1ccc(-n2nc3c(c2NC(=O)c2c(-c4ccccc4Cl)noc2C)CSC3)cc1 | 12.6 µM [falling, single point]
Cc1cc(NC(=O)c2cnn3c(C(F)F)cc(-c4ccccc4)nc23)no1 | 3.98 µM [rising, single point]
COc1ccc(NC(=O)COn2nnc3ccc(Cl)cc32)cc1OC | 10 µM [rising, single point]
CCc1c(C(=O)Nc2ncn(Cc3cccc(C)c3)n2)csc1C | 0.00316 µM [falling, full curve, poor fit]
O=C(NCCC(=O)N1CCN(c2ncccn2)CC1)c1ccccc1 | 0.00316 µM [falling, full curve, poor fit]

Compound | AC50
N=c1oc2c3c4c(cc2cc1C(=O)Nc1ccccc1)CCCN4CCC3 | 1 µM [rising, partial curve]
CCn1c2c(c3cc(C(=O)O)ccc31)CCCC2=O | 12.6 µM [rising, single point]
CCc1ccc(C(=O)CSc2n[nH]c(C)n2)cc1 | 0.0158 µM [falling, full curve, poor fit]
CCOC(=O)c1ccccc1NC(=O)Cn1cnc2c(cnn2-c2ccccc2)c1=O | 25.1 µM [rising, single point]
CCN(CC)c1ccc(NC(=O)c2ccc(Br)o2)cc1 | 0.398 µM [rising, partial curve]
Cc1cc(N2CCC(C)CC2)nc2ccc(N3C(=O)CCC3=O)cc12 | 0.0251 µM [falling, full curve, poor fit]
Cc1ccc(-c2nc(COC(=O)c3c(C)noc3C)cs2)cc1 | 31.6 µM [falling, partial curve]
Cc1ccc(-c2cc(-c3ccccc3Cl)[nH]n2)c(O)c1 | 10 µM [falling, partial curve]
CC(C)(Oc1ccc(Cl)cc1)C(=O)Nc1ccc2oc(-c3ccncc3)nc2c1 | 3.16 µM [rising, single point]
O=C(NCCc1ccccc1)C1CCCN1C(=O)Nc1ccc(F)cc1 (configuration not stated) | 0.398 µM [falling, partial curve, poor fit]
COc1ccc(-n2c(=O)c(CCc3ccccc3)nc3cnc(N4CCNCC4)nc32)cc1 | 12.6 µM [rising, partial curve]
CN(C)C(=O)c1ccc(-c2nccc(NCc3cccnc3)n2)cc1 | 12.6 µM [rising, single point]
O=C(c1cc2nc(-c3ccccc3)cc(C(F)(F)F)n2n1)N1CCCC1 | 12.6 µM [rising, single point]
Cc1ccccc1-c1cc(Nc2ccc(F)cc2)ncn1 | 6.31 µM [rising, full curve, poor fit]
Cc1nc2ccccc2c2oc(C(=O)NCC3CCCO3)cc12 (configuration not stated) | 2 µM [rising, full curve]
COc1ccccc1N1CCN(C(c2cccs2)C(C)NC(=O)c2cccs2)CC1 (configuration not stated) | 25.1 µM [rising, single point]
CCOC(=O)C1CCCN(C(=O)c2cc3c(-c4cccc(OC)c4)nn(C)c3s2)C1 (configuration not stated) | 2.51 µM [rising, full curve]
CCC(C(=O)NC1CCCC1)N(C(=O)Cn1nnc(-c2ccc(OC)c(OC)c2)n1)C1CCCCC1 (configuration not stated) | 10 µM [rising, partial curve]
CCC1CCc2c(sc(NC(=O)c3ccoc3C)c2C(N)=O)C1 (configuration not stated) | 12.6 µM [rising, partial curve]
COc1ccc(OC)c(-c2cc(C(=O)NCc3ccco3)no2)c1 | 10 µM [rising, partial curve]
O=C1c2ccccc2C(=O)N1CCCC(=O)N1CCc2ccccc21 | 0.251 µM [rising, partial curve, poor fit]
